# ± gives the standard deviation of the averaged measurements. The entries are a selection whose mix differs from that of the whole data set.
# How the values were obtained:
# Assay in all cases: NP40-soluble protein abundance relative to vehicle (solubility fold change) (ratio); higher = more soluble protein in presence of ATP
# CDKAL1 = target: T1, CDKAL1 (UniProt Q5VV42)
# T1 sequence (whole entry): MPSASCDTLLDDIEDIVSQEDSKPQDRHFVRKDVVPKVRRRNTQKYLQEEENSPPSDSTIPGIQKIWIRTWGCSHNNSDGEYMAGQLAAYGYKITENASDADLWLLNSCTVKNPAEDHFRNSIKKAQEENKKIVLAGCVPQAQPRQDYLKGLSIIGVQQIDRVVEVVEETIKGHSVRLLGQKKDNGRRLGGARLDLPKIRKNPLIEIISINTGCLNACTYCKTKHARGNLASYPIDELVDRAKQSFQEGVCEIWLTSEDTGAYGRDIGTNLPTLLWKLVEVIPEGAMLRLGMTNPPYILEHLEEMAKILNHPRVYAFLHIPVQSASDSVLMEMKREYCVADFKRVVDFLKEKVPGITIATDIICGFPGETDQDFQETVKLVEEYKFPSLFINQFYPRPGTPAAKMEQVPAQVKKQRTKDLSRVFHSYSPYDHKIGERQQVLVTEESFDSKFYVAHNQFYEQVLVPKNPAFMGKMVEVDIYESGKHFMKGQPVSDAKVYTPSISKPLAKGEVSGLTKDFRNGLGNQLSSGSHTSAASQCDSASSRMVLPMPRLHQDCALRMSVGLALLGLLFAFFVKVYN
# How it was run: (§1)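 In three independent experiments, Jurkat crude lysate made by Dounce homogenisation was treated for 10 min at room temperature and then 3 min at 37 °C with eight concentrations ranging from 0.1 to 10 mM. It was then solubilised with 0.8% NP40 plus benzonase for 60 min at 4 °C and ultracentrifuged. The supernatant was TMT-labelled for LC-MS/MS, and each value is the fold change against the detergent-processed vehicle for the same replicate, using vsn-normalised intensities.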
# DDX59 = target: T2, DDX59 (UniProt Q5T1V6)
# T2 sequence (whole entry): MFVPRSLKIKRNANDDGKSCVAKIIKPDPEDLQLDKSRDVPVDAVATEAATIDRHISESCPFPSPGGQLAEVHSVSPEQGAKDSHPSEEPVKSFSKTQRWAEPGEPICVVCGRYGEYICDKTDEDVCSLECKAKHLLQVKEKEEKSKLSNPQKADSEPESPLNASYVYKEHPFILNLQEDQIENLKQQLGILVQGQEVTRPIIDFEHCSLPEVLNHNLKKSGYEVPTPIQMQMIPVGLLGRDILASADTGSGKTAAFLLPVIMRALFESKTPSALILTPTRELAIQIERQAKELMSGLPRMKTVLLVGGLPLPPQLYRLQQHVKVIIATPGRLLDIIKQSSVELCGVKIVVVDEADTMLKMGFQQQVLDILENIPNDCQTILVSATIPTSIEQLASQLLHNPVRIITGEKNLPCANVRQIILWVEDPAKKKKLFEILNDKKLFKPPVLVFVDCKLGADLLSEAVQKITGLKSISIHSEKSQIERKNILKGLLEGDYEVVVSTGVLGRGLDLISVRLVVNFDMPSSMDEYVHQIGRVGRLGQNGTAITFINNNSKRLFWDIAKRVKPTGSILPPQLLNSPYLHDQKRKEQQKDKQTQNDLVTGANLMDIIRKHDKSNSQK
# How it was run: as §1
# PRPF38B = target: T3, PRPF38B (UniProt Q5VTL8)
# T3 sequence (whole entry): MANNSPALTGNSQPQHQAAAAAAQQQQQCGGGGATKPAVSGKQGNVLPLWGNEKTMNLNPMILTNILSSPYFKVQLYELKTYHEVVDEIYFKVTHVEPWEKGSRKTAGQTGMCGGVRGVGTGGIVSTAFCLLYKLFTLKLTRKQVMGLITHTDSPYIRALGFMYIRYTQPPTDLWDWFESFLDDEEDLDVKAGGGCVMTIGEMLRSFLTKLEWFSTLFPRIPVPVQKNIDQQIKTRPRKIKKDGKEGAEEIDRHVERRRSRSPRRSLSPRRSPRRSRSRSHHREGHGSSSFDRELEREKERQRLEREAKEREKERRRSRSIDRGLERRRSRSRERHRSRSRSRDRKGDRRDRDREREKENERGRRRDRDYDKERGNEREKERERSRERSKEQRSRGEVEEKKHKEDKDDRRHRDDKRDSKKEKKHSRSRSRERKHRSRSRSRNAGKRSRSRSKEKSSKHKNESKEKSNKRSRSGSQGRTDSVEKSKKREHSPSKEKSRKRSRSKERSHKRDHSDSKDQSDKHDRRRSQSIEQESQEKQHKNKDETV
# How it was run: as §1
# [1] = target: T4, Q5SZG2 and related entries (UniProt Q8TAK5)
# T4 sequence (whole entry): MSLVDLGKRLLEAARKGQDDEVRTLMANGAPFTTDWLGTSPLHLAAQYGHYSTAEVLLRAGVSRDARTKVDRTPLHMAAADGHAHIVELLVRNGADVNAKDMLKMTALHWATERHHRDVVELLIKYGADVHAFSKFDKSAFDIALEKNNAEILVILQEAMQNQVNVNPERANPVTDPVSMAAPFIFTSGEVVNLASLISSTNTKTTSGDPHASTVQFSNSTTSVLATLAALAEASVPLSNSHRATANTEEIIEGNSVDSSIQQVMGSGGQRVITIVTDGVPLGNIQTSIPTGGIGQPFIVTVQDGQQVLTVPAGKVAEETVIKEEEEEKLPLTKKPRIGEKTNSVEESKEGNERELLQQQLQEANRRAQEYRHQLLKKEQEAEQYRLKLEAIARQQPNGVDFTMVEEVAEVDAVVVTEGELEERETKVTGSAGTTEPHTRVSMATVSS
# How it was run: as §1
# [2] = target: T5, Q5TCJ5 and related entries (UniProt Q9H3S1)
# T5 sequence (whole entry): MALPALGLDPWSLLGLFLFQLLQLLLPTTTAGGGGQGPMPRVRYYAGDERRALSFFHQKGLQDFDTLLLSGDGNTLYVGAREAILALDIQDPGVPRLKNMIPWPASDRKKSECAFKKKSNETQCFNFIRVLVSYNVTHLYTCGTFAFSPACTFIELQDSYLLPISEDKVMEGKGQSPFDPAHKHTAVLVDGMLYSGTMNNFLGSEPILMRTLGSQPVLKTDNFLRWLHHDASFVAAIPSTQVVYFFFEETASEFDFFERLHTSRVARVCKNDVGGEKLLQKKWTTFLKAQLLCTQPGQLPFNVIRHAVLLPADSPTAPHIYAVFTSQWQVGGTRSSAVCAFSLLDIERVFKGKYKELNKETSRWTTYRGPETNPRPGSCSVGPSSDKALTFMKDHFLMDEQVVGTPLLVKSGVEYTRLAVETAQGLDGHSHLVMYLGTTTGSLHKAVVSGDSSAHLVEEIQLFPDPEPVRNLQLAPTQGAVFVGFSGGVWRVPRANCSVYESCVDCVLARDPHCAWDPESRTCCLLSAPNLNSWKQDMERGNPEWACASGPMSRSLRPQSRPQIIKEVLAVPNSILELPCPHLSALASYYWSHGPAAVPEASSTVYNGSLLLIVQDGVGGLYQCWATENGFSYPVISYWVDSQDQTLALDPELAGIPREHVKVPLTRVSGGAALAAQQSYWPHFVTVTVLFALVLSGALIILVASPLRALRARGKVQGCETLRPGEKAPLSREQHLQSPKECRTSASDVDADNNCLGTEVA
# How it was run: as §1
# RABL3 = target: T6, RABL3 (UniProt Q5HYI8)
# T6 sequence (whole entry): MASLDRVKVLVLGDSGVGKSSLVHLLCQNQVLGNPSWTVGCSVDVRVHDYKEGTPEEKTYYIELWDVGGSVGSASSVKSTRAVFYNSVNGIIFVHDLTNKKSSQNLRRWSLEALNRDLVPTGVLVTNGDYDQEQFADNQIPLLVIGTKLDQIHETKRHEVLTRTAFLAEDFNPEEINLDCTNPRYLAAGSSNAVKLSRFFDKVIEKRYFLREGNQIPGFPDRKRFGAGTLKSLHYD
# How it was run: as §1
# [3] = target: T7, UniProt Q58A45 and related entries
# T7 sequence (whole entry): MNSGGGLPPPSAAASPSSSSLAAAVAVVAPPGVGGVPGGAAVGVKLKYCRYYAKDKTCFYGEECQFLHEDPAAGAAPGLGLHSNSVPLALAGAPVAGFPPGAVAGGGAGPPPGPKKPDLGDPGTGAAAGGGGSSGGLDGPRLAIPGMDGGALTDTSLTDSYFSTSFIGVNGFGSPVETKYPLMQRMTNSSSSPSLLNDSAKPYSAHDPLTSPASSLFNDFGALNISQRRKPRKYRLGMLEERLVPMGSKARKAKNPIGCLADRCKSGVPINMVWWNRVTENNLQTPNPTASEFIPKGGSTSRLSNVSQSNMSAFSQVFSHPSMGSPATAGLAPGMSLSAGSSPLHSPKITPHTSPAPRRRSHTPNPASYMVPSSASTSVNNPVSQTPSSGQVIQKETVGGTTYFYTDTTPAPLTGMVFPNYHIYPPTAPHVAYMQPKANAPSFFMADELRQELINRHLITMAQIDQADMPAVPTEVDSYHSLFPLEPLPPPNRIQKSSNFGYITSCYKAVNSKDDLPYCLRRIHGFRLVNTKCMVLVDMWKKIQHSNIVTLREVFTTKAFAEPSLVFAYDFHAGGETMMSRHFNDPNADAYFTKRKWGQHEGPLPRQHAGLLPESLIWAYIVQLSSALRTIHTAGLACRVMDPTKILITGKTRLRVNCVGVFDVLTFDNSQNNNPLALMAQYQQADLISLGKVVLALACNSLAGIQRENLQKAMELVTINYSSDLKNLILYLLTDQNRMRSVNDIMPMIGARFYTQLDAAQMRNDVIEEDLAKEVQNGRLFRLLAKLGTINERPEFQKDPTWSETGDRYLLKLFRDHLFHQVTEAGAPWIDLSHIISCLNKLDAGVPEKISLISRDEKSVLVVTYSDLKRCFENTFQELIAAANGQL
# How it was run: as §1
# [4] = target: T8, UniProt Q5SGD2 and related entries
# T8 sequence (whole entry): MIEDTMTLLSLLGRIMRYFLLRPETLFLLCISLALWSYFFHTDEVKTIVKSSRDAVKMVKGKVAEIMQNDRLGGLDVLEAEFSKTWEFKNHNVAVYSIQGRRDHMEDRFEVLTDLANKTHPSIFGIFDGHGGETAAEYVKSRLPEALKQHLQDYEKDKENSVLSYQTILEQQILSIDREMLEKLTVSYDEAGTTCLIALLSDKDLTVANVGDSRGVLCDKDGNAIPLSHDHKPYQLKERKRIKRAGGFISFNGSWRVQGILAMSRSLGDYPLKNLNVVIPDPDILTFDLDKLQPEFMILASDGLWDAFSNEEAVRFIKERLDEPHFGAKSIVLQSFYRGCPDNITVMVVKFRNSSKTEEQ
# How it was run: as §1
smiles,measurement,setting,value
Nc1ncnc2c1ncn2[C@@H]1O[C@H](COP(=O)(O)OP(=O)(O)OP(=O)(O)O)[C@@H](O)[C@H]1O [adenosine triphosphate],NP40-soluble protein abundance,CDKAL1; concentration: 1mM,1.01 ± 0.042
same,NP40-soluble protein abundance,CDKAL1; concentration: 2mM,0.995 ± 0.024
same,NP40-soluble protein abundance,CDKAL1; concentration: 4mM,0.975 ± 0.018
same,NP40-soluble protein abundance,CDKAL1; concentration: 6mM,0.982 ± 0.025
same,NP40-soluble protein abundance,CDKAL1; concentration: 8mM,0.999 ± 0.029
same,NP40-soluble protein abundance,CDKAL1; concentration: 10mM,0.9904 ± 0.0045
same,NP40-soluble protein abundance,DDX59; concentration: 1mM,1.01 ± 0.056
same,NP40-soluble protein abundance,DDX59; concentration: 2mM,0.999 ± 0.031
same,NP40-soluble protein abundance,DDX59; concentration: 4mM,1 ± 0.037
same,NP40-soluble protein abundance,DDX59; concentration: 6mM,0.966 ± 0.066
same,NP40-soluble protein abundance,DDX59; concentration: 8mM,0.978 ± 0.047
same,NP40-soluble protein abundance,DDX59; concentration: 10mM,0.982 ± 0.022
same,NP40-soluble protein abundance,PRPF38B; concentration: 1mM,1.21 ± 0.072
same,NP40-soluble protein abundance,PRPF38B; concentration: 2mM,1.25 ± 0.096
same,NP40-soluble protein abundance,PRPF38B; concentration: 4mM,1.31 ± 0.051
same,NP40-soluble protein abundance,PRPF38B; concentration: 6mM,1.48 ± 0.09
same,NP40-soluble protein abundance,PRPF38B; concentration: 8mM,1.44 ± 0.084
same,NP40-soluble protein abundance,PRPF38B; concentration: 10mM,1.52 ± 0.14
same,NP40-soluble protein abundance,[1]; concentration: 1mM,0.978 ± 0.13
same,NP40-soluble protein abundance,[1]; concentration: 2mM,0.967 ± 0.059
same,NP40-soluble protein abundance,[1]; concentration: 4mM,1.02 ± 0.019
same,NP40-soluble protein abundance,[1]; concentration: 6mM,0.961 ± 0.047
same,NP40-soluble protein abundance,[1]; concentration: 8mM,0.937 ± 0.067
same,NP40-soluble protein abundance,[1]; concentration: 10mM,0.931 ± 0.036
same,NP40-soluble protein abundance,[2]; concentration: 1mM,1.03 ± 0.058
same,NP40-soluble protein abundance,[2]; concentration: 2mM,1.08 ± 0.08
same,NP40-soluble protein abundance,[2]; concentration: 4mM,1.09 ± 0.057
same,NP40-soluble protein abundance,[2]; concentration: 6mM,1.04 ± 0.033
same,NP40-soluble protein abundance,[2]; concentration: 8mM,0.981 ± 0.043
same,NP40-soluble protein abundance,[2]; concentration: 10mM,1.03 ± 0.051
same,NP40-soluble protein abundance,RABL3; concentration: 1mM,1.04 ± 0.045
same,NP40-soluble protein abundance,RABL3; concentration: 2mM,1 ± 0.025
same,NP40-soluble protein abundance,RABL3; concentration: 4mM,1 ± 0.018
same,NP40-soluble protein abundance,RABL3; concentration: 6mM,0.972 ± 0.024
same,NP40-soluble protein abundance,RABL3; concentration: 8mM,1 ± 0.038
same,NP40-soluble protein abundance,RABL3; concentration: 10mM,0.991 ± 0.055
same,NP40-soluble protein abundance,[3]; concentration: 1mM,1.077 ± 0.0091
same,NP40-soluble protein abundance,[3]; concentration: 2mM,1.09 ± 0.034
same,NP40-soluble protein abundance,[3]; concentration: 4mM,1.08 ± 0.015
same,NP40-soluble protein abundance,[3]; concentration: 6mM,1.06 ± 0.035
same,NP40-soluble protein abundance,[3]; concentration: 8mM,1.12 ± 0.052
same,NP40-soluble protein abundance,[3]; concentration: 10mM,1.17 ± 0.039
same,NP40-soluble protein abundance,[4]; concentration: 1mM,1.03 ± 0.046
same,NP40-soluble protein abundance,[4]; concentration: 2mM,1.02 ± 0.051
same,NP40-soluble protein abundance,[4]; concentration: 4mM,1.05 ± 0.087
same,NP40-soluble protein abundance,[4]; concentration: 6mM,1.06 ± 0.048
same,NP40-soluble protein abundance,[4]; concentration: 8mM,1.05 ± 0.15
same,NP40-soluble protein abundance,[4]; concentration: 10mM,1.05 ± 0.013

# Random excerpt: 3 records from the list, in no set order.
smiles,measurement,setting,value
Nc1ncnc2c1ncn2[C@@H]1O[C@H](COP(=O)(O)OP(=O)(O)OP(=O)(O)O)[C@@H](O)[C@H]1O [adenosine triphosphate],NP40-soluble protein abundance,[4]; concentration: 8mM,1.05 ± 0.15
same,NP40-soluble protein abundance,DDX59; concentration: 8mM,0.978 ± 0.047
same,NP40-soluble protein abundance,RABL3; concentration: 8mM,1 ± 0.038

# Reference: the supplement of paper PMC6411743
